From PMC8856959
Results are given in words; binding and its absence hold for the method and conditions named. In cells and extracts the contact can be indirect. Sequences can lack the tags named with a protein.

The chains behind the UniProt entries cited, without tags or fusion partners.
UniProt P06748: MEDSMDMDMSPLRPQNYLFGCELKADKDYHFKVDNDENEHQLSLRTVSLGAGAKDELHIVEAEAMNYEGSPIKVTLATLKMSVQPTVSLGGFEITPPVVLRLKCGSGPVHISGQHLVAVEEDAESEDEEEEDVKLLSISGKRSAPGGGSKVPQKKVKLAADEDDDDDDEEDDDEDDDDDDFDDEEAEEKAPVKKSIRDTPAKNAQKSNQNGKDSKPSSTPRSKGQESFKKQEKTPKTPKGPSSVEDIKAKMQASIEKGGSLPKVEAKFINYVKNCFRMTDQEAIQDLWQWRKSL

Target: flag-tagged NPM1 (UniProt P06748)
Experiment: co-IP; H1299 cells co-transfected with HA-tagged Puf-A (wild type or mutant) and flag-tagged NPM1; lysates precipitated with antibodies against HA or flag, immunoblotted with tag antibodies

binding: no binding
B1: HA-tagged Puf-A mutant (478RRR480 to 478GGG480) (protein, UniProt Q15397 1-648)
chain: MEVKGKKQFTGKSTKTAQEKNRFHKNSDSGSSKTFPTRKVAKEGGPKVTSRNFEKSITKLGKKGVKQFKNKQQGDKSPKNKFQPANKFNKKRKFQPDGRSDESAAKKPKWDDFKKKKKELKQSRQLSDKTNYDIVVRAKQMWEILRRKDCDKEKRVKLMSDLQKLIQGKIKTIAFAHDSTRVIQCYIQYGNEEQRKQAFEELRDDLVELSKAKYSRNIVKKFLMYGSKPQIAEIIRSFKGHVRKMLRHAEASAIVEYAYNDKAILEQRNMLTEELYGNTFQLYKSADHRTLDKVLEVQPEKLELIMDEMKQILTPMAQKEAVIKHSLVHKVFLDFFTYAPPKLRSEMIEAIREAVVYLAHTHDGARVAMHCLWHGTPKDRKVIVKTMKTYVEKVANGQYSHLVLLAAFDCIDDTKLVKQIIISEIISSLPSIVNDKYGRKVLLYLLSPRDPAHTVREIIEVLQKGDGNAHSKKDTEVGGGELLESISPALLSYLQEHAQEVVLDKSACVLVSDILGSATGDVQPTMNAIASLAATGLHPGGKDGELHIAEHPAGHLVLKWLIEQDKKMKENGREGCFAKTLVEHVGMKNLKSWASVNRGAIILSSLLQSCDLEVANKVKAALKSLIPTLEKTKSTSKGIEILLEKLST
